{"source": "patent US7473541B2", "about": "“Identification, cloning, expression, and purification of three novel human calcium-independent phospholipase A2 family members possessing triacylglycerol lipase and acylglycerol transacylase activities” (priority 2004, dated 2009)", "origin": "cited, not measured here", "tested_on": "adiponutrin (iPLA2epsilon) mRNA", "settings": "differentiating 3T3-L1 adipocytes (ref 27); cited from earlier work", "note": "At least one structure is not confirmed: it was looked up by name or label, or the drawing left a doubt."}
{"smiles": "Cc1c(C)c2c(c(C)c1O)CCC(C)(COc1ccc(CC3SC(=O)NC3=O)cc1)O2", "note": "(stereo not shown) [troglitazone]", "values": [{"measurement": "effect on adiponutrin (iPLA2epsilon) mRNA levels", "result": "down-regulates"}]}
